Experimental data published in article PMC6389942.
Results are given in words; binding and its absence hold for the method and conditions named. Binding seen in cells or lysates may run through a third protein. Some entries that bind do so weakly or less than the wild type. Sequences can lack the tags named with a protein.

How the values were obtained:
Assay in all cases: co-IP; HEK293T cells co-expressing both proteins; lysis buffer 20 mM Tris/HCl pH 7.5, 50 mM NaCl, 1% TritonX-100, 5 mM EGTA, 1 mM DTT, 2 mM MgCl2; IP with FLAG antibody-conjugated M2 agarose, 2 h at 4 °C; western blotting
[1] = target: FLAG-PCNT N-terminal half (a.a. 1–1962) (human) (UniProt O95613)
[2] = target: T1, FLAG-PCNT a.a. 2945–3216 (human) (UniProt O95613)
T1 sequence: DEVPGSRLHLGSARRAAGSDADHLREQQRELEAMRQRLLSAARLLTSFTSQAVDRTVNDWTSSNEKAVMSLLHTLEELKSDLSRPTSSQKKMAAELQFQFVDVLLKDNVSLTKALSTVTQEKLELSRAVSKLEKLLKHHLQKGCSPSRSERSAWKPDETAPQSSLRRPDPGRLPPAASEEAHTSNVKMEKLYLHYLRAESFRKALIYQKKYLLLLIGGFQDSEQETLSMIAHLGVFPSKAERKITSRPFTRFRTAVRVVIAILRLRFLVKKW

[3] = target: T2, FLAG-PCNT a.a. 3139–3336 (human) (UniProt O95613)
T2 sequence: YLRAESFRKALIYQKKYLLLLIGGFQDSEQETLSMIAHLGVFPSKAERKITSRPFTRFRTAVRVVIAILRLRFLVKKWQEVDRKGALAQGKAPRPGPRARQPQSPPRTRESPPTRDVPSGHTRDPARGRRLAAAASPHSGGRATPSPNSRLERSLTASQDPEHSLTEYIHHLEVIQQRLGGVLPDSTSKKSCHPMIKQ

[4] = target: FLAG-PCNT (pericentrin, full length) (human) (UniProt O95613)

Measured: binding

B1: HA-Cep57 (centrosomal protein of 57 kDa, full length) (protein, UniProt Q86XR8-1 1-500)
chain: MAAASVSAASGSHLSNSFAEPSRSNGSMVRHSSSPYVVYPSDKPFLNSDLRRSPSKPTLAYPESNSRAIFSALKNLQDKIRRLELERIQAEESVKTLSRETIEYKKVLDEQIQERENSKNEESKHNQELTSQLLAAENKCNLLEKQLEYMRNMIKHAEMERTSVLEKQVSLERERQHDQTHVQSQLEKLDLLEQEYNKLTTMQALAEKKMQELEAKLHEEEQERKRMQAKAAELQTGLETNRLIFEDKATPCVPNARRIKKKKSKPPEKKSSRNYFGAQPHYRLCLGDMPFVAGKSTSPSHAVVANVQLVLHLMKQHSKALCNDRVINSIPLAKQVSSRGGKSKKLSVTPPSSNGINEELSEVLQTLQDEFGQMSFDHQQLAKLIQESPTVELKDKLECELEALVGRMEAKANQITKVRKYQAQLEKQKLEKQKKELKATKKTLDEERNSSSRSGITGTTNKKDFMKLRPGEKRRKNLQLLKDMQSIQNSLQSSSLCWDY
binds: all assays above
